Source: patent publication US20080262000A1, “5-Alkoxyalkyl-6-alkyl-7-Aminoazolopyrimidines, Process for Their Preparation, Their Use for Controlling Harmful Fungi, and Compositions Comprising Them” (BASF Aktiengesellschaft, priority 2005, published 2008)
Read-outs that look alike come from different tables or passages of the source. Some results were stated once for a whole list of compounds, not compound by compound.

Assays:
Plasmopara viticola = assay: Long lasting activity against Peronospora on grapevines caused by Plasmopara viticola on protective treatment; conditions: potted vines
Phytophthora infestans = type: in vivo; conditions: potted tomato plants, untreated plants 90% infestation
[1] = another type of test, 1 day of protective treatment, 63 ppm
[2] = 1 day of protective treatment, 63 ppm, untreated plants 90% infestation

Row | Structure (SMILES) | infestation (Plasmopara viticola; 7 days of protective treatment, 250 ppm, untreated plants 70% infestation) | infestation (Phytophthora infestans; 3 days of protective treatment, 250 ppm) | infestation (Phytophthora infestans; [1]) | infestation (Plasmopara viticola; [2])
1 | CCCCCCCCc1c(COCC)nc2ncnn2c1N [I-2] | at most 5% | – | – | –
2 | CCCCCCCCOCCCc1c(COC)nc2ncnn2c1N [I-4] | – | at most 20% | at most 5% | at most 3%
3 | COCc1nc2ncnn2c(N)c1CCC(C)CC(C)(C)C (stereo not drawn) [I-5] | – | – | at most 5% | at most 3%
